Measured values: PubChem BioAssay AID188 (DTP/NCI, 2004)
The mice bore no tumour; each value counts animals alive of those treated. Counts of survivors are from the toxicity check (mostly the fifth day) where no day follows; animals may have died later. Schedules are NCI's codes, read here as Q, the interval in days (D) or hours (H), X, the number of doses. Some doses were run more than once; the values are given in rising order. Brackets with × say how often a value occurs here.

Test system: CD2F1 mice, nontumored, toxicity/survival
Assay: NCI In Vivo Anticancer Drug Screen. Data for tumor model Nontumored Animals (Toxicity Test) in CD2F1 (CDF1) mice

O=CC(NC(=O)N(CCCl)N=O)C(O)C(O)C(O)CO (configuration not stated)
survivor count (dose: 7.0 mg/kg/injection, schedule: Q01DX001 (ip), vehicle: saline): 10 of 10 and 6 of 6
survivor count (dose: 7.5 mg/kg/injection, schedule: Q01DX001 (ip), vehicle: saline): 8 of 8
survivor count (dose: 11.0 mg/kg/injection, schedule: Q01DX001 (ip), vehicle: saline): 10 of 10 and 6 of 6
survivor count (dose: 15.0 mg/kg/injection, schedule: Q01DX001 (ip), vehicle: saline): 8 of 8
survivor count (dose: 16.0 mg/kg/injection, schedule: Q01DX001 (ip), vehicle: saline): 10 of 10 (2×) and 6 of 6 (2×)
survivor count (dose: 20.0 mg/kg/injection, schedule: Q01DX001 (ip), vehicle: saline): 10 of 10
survivor count (dose: 24.0 mg/kg/injection, schedule: Q01DX001 (ip), vehicle: saline): 10 of 10, 6 of 6 (2×), 9 of 9
survivor count (dose: 25.0 mg/kg/injection, schedule: Q01DX001 (ip), vehicle: saline): 4 of 4
survivor count (dose: 28.0 mg/kg/injection, schedule: Q01DX001 (ip), vehicle: saline): 10 of 10
survivor count (dose: 30.0 mg/kg/injection, schedule: Q01DX001 (ip), vehicle: saline): 8 of 8
survivor count (dose: 36.0 mg/kg/injection, schedule: Q01DX001 (ip), vehicle: saline): 8 of 10, 10 of 10, 6 of 6 (2×)
survivor count (dose: 41.6 mg/kg/injection, schedule: Q01DX001 (ip), vehicle: saline): 4 of 4
survivor count (dose: 54.0 mg/kg/injection, schedule: Q01DX001 (ip), vehicle: saline): 10 of 10 and 6 of 6
survivor count (dose: 60.0 mg/kg/injection, schedule: Q01DX001 (ip), vehicle: saline): 8 of 8
survivor count (dose: 69.4 mg/kg/injection, schedule: Q01DX001 (ip), vehicle: saline): 4 of 4
survivor count (dose: 81.0 mg/kg/injection, schedule: Q01DX001 (ip), vehicle: saline): 10 of 10 and 6 of 6
survivor count (dose: 120.0 mg/kg/injection, schedule: Q01DX001 (ip), vehicle: saline): 10 of 10 and 6 of 6

N#Cc1cn(C2OC(CO)C(O)C2O)c2ncnc(N)c12 (configuration not stated)
survivor count (dose: 0.1 mg/kg/injection, schedule: Q06HX024 (ip), vehicle: saline): 8 of 8
survivor count (dose: 0.2 mg/kg/injection, schedule: Q06HX024 (ip), vehicle: saline): 8 of 8
survivor count (dose: 0.4 mg/kg/injection, schedule: Q06HX024 (ip), vehicle: saline): 6 of 7

O=[N+]([O-])c1nccn1CC(O)CF (configuration not stated)
survivor count (dose: 25.0 mg/kg/injection, schedule: Q01DX005 (ip), vehicle: other): 3 of 3
survivor count (dose: 50.0 mg/kg/injection, schedule: Q01DX001 (ip), vehicle: saline with Tween-80): 3 of 3
survivor count (dose: 50.0 mg/kg/injection, schedule: Q01DX005 (ip), vehicle: other): 3 of 3
survivor count (dose: 100.0 mg/kg/injection, schedule: Q01DX001 (ip), vehicle: saline with Tween-80): 3 of 3
survivor count (dose: 100.0 mg/kg/injection, schedule: Q01DX005 (ip), vehicle: other): 3 of 3
survivor count (dose: 200.0 mg/kg/injection, schedule: Q01DX001 (ip), vehicle: saline with Tween-80): 3 of 3
survivor count (dose: 200.0 mg/kg/injection, schedule: Q01DX005 (ip), vehicle: other): 3 of 3
survivor count (dose: 360.0 mg/kg/injection, schedule: Q01DX001 (ip), vehicle: saline with Tween-80): 3 of 3
survivor count (dose: 400.0 mg/kg/injection, schedule: Q01DX001 (ip), vehicle: saline with Tween-80): 3 of 3
survivor count (dose: 400.0 mg/kg/injection, schedule: Q01DX005 (ip), vehicle: other): 2 of 3
survivor count (dose: 600.0 mg/kg/injection, schedule: Q01DX001 (ip), vehicle: saline with Tween-80): 3 of 3
survivor count (dose: 600.0 mg/kg/injection, schedule: Q01DX005 (ip), vehicle: other): 1 of 3
survivor count (dose: 800.0 mg/kg/injection, schedule: Q01DX005 (ip), vehicle: other): 0 of 3
survivor count (dose: 1000.0 mg/kg/injection, schedule: Q01DX001 (ip), vehicle: saline with Tween-80): 0 of 3

Nc1nc2ncc(CN(N=O)c3ccc(C(=O)NC(CCC(=O)O)C(=O)O)cc3)nc2c(=O)[nH]1 (configuration not stated)
survivor count (dose: 1.0 mg/kg/injection, schedule: Q01DX001 (ip), vehicle: water): 2 of 2
survivor count (dose: 10.0 mg/kg/injection, schedule: Q01DX001 (ip), vehicle: water): 2 of 2
survivor count (dose: 100.0 mg/kg/injection, schedule: Q01DX001 (ip), vehicle: water): 0 of 2

CN(C)N=Nc1ccc(NC(N)=O)cc1
survivor count (dose: 30.0 mg/kg/injection, schedule: Q01DX009 (ip), vehicle: Klucel (hydroxypropylcellulose) (HPC)): 9 of 10
survivor count (dose: 44.0 mg/kg/injection, schedule: Q01DX009 (ip), vehicle: Klucel (hydroxypropylcellulose) (HPC)): 10 of 10
survivor count (dose: 67.0 mg/kg/injection, schedule: Q01DX009 (ip), vehicle: Klucel (hydroxypropylcellulose) (HPC)): 10 of 10
survivor count (dose: 100.0 mg/kg/injection, schedule: Q01DX009 (ip), vehicle: Klucel (hydroxypropylcellulose) (HPC)): 5 of 10
survivor count (dose: 150.0 mg/kg/injection, schedule: Q01DX009 (ip), vehicle: Klucel (hydroxypropylcellulose) (HPC)): 0 of 10

O=[N+]([O-])c1nccn1CC(O)CO (configuration not stated)
survivor count (dose: 50.0 mg/kg/injection, schedule: Q01DX001 (ip), vehicle: saline): 3 of 3
survivor count (dose: 100.0 mg/kg/injection, schedule: Q01DX001 (ip), vehicle: saline): 3 of 3
survivor count (dose: 200.0 mg/kg/injection, schedule: Q01DX001 (ip), vehicle: saline): 3 of 3
survivor count (dose: 360.0 mg/kg/injection, schedule: Q01DX001 (ip), vehicle: saline + alcohol): 3 of 3
survivor count (dose: 400.0 mg/kg/injection, schedule: Q01DX001 (ip), vehicle: saline): 3 of 3
survivor count (dose: 600.0 mg/kg/injection, schedule: Q01DX001 (ip), vehicle: saline + alcohol): 3 of 3
survivor count (dose: 1000.0 mg/kg/injection, schedule: Q01DX001 (ip), vehicle: saline + alcohol): 3 of 3

COc1ccc2c(c1OC(C)=O)-c1cc(OC(C)=O)cc3c1C(C2)N(C(=O)CCl)CC3 (configuration not stated)
survivor count (dose: 1.0 mg/kg/injection, schedule: Q01DX001 (ip), vehicle: DMSO): 2 of 2
survivor count (dose: 10.0 mg/kg/injection, schedule: Q01DX001 (ip), vehicle: DMSO): 2 of 2
survivor count (dose: 100.0 mg/kg/injection, schedule: Q01DX001 (ip), vehicle: DMSO): 2 of 2

O=C1C=CN(C2OC(CO)C(O)C2O)C(=O)C1 (configuration not stated)
survivor count (dose: 12.5 mg/kg/injection, schedule: Q01DX009 (ip), vehicle: saline): 4 of 4
survivor count (dose: 25.0 mg/kg/injection, schedule: Q01DX009 (ip), vehicle: saline): 4 of 4
survivor count (dose: 50.0 mg/kg/injection, schedule: Q01DX009 (ip), vehicle: saline): 4 of 4
survivor count (dose: 75.0 mg/kg/injection, schedule: Q01DX009 (ip), vehicle: saline): 4 of 4
survivor count (dose: 100.0 mg/kg/injection, schedule: Q01DX009 (ip), vehicle: saline): 4 of 4
